Laboratory results published in patent US7704994B2, “Benzazepine derivatives for the treatment of neurological disorders” (Glaxo Group Limited, priority 2002, dated 2010).
Some of these results come from one statement about several compounds together. Some compounds share one range, which may span the group rather than tell each member.

Protein sequences, listed by entry. Tags and fused reporters are not part of them. Lines headed by an entry give the natural chain unless they say otherwise; changes in a name come on top.
UniProt Q9Y5N1: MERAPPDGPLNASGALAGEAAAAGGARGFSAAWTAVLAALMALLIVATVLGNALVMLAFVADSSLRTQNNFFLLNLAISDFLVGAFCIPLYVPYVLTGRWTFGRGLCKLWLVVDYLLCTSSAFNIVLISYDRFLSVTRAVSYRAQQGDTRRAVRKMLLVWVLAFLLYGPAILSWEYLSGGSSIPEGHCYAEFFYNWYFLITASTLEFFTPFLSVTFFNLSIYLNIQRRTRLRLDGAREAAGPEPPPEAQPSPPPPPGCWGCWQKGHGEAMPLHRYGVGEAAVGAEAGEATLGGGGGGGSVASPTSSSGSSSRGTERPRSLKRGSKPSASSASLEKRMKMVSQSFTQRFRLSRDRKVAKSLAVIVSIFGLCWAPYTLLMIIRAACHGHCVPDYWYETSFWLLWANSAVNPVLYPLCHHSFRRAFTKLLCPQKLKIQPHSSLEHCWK

Molecular target: T1, human histamine H3 receptor (Homo sapiens, UniProt Q9Y5N1)
T1 construct: expressed in transfected cells; host or cells: CHO K1 cells carrying pSwitch, transfected with pGeneH3 and induced with mifepristone; membranes of clone 3H3
Assay: Histamine H3 functional antagonist assay
Format: biochemical
Conditions: membranes of CHO K1 cells expressing human histamine H3; [35S]GTPγS SPA; histamine 0.3 μM

SMILES	antagonism (pKb)
c1ccc(Oc2ccc3c(c2)CCN(C2CCC2)CC3)nc1 [Example 101, 3-Cyclobutyl-7-(pyridin-2-yloxy)-2,3,4,5-tetrahydro-1H-benzo[d]azepine]	6.5-10.5 pKb
O=C(c1ccc(Oc2ccc3c(c2)CCN(C2CCC2)CC3)nc1)N1CCOCC1 [Example 102, 1-[6-(3-Cyclobutyl-2,3,4,5-tetrahydro-1H-benzo[d]azepin-7-yloxy)-pyridin-3-yl]-1-morpholin-4-yl-methanone]	6.5-10.5 pKb
NC(=O)c1ccc(Oc2ccc3c(c2)CCN(C2CCC2)CC3)nc1 [Example 104, 6-(3-Cyclobutyl-2,3,4,5-tetrahydro-1H-benzo[d]azepin-7-yloxy)-nicotinamide]	6.5-10.5 pKb
CN(C)C(=O)c1ccc(Oc2ccc3c(c2)CCN(C2CCC2)CC3)nc1 [Example 105, 6-(3-Cyclobutyl-2,3,4,5-tetrahydro-1H-benzo[d]azepin-7-yloxy)-N,N-dimethyl-nicotinamide]	6.5-10.5 pKb
CCN(C)C(=O)c1ccc(Oc2ccc3c(c2)CCN(C2CCC2)CC3)nc1 [Example 106, 6-(3-Cyclobutyl-2,3,4,5-tetrahydro-1H-benzo[d]azepin-7-yloxy)-N-ethyl-N-methyl-nicotinamide]	6.5-10.5 pKb
O=C(NC1CCCC1)c1ccc(Oc2ccc3c(c2)CCN(C2CCC2)CC3)nc1 [Example 107, 6-(3-Cyclobutyl-2,3,4,5-tetrahydro-1H-benzo[d]azepin-7-yloxy)-N-cyclopentyl-nicotinamide]	6.5-10.5 pKb
O=C(c1ccc(Oc2ccc3c(c2)CCN(C2CCC2)CC3)nc1)N1CCCCC1 [Example 108, 1-[6-(3-Cyclobutyl-2,3,4,5-tetrahydro-1H-benzo[d]azepin-7-yloxy)-pyridin-3-yl]-1-piperidin-1-yl-methanone]	6.5-10.5 pKb
O=C(c1ccnc(Oc2ccc3c(c2)CCN(C2CCC2)CC3)c1)N1CCCCC1 [Example 109, 1-[2-(3-Cyclobutyl-2,3,4,5-tetrahydro-1H-benzo[d]azepin-7-yloxy)-pyridin-4-yl]-1-piperidin-1-yl-methanone]	6.5-10.5 pKb
O=C(c1ccnc(Oc2ccc3c(c2)CCN(C2CCC2)CC3)c1)N1CCCC1 [Example 110, 1-[2-(3-Cyclobutyl-2,3,4,5-tetrahydro-1H-benzo[d]azepin-7-yloxy)-pyridin-4-yl]-1-pyrrolidin-1-yl-methanone]	6.5-10.5 pKb
O=C(c1ccnc(Oc2ccc3c(c2)CCN(C2CCC2)CC3)c1)N1CCOCC1 [Example 111, 1-[2-(3-Cyclobutyl-2,3,4,5-tetrahydro-1H-benzo[d]azepin-7-yloxy)-pyridin-4-yl]-1-morpholin-4-yl-methanone]	6.5-10.5 pKb
O=C(c1cccc(Oc2ccc3c(c2)CCN(C2CCC2)CC3)n1)N1CCCCC1 [Example 112, 1-[6-(3-Cyclobutyl-2,3,4,5-tetrahydro-1H-benzo[d]azepin-7-yloxy)-pyridin-2-yl]-1-piperidin-1-yl-methanone]	6.5-10.5 pKb
O=C(c1cccc(Oc2ccc3c(c2)CCN(C2CCC2)CC3)n1)N1CCS(=O)(=O)CC1 [Example 113, 1-[6-(3-Cyclobutyl-2,3,4,5-tetrahydro-1H-benzo[d]azepin-7-yloxy)-pyridin-2-yl]-1-(1,1-dioxothiomorpholin-4-yl)-methanone]	6.5-10.5 pKb
O=C(c1cccc(Oc2ccc3c(c2)CCN(C2CCC2)CC3)n1)N1CCCC1 [Example 114, 1-[6-(3-Cyclobutyl-2,3,4,5-tetrahydro-1H-benzo[d]azepin-7-yloxy)-pyridin-2-yl]-1-pyrrolidin-1-yl-methanone]	6.5-10.5 pKb
O=C(c1cccc(Oc2ccc3c(c2)CCN(C2CCC2)CC3)n1)N1CCOCC1 [Example 115, 1-[6-(3-Cyclobutyl-2,3,4,5-tetrahydro-1H-benzo[d]azepin-7-yloxy)-pyridin-2-yl]-1-morpholin-4-yl-methanone]	6.5-10.5 pKb
O=C(c1cccnc1Oc1ccc2c(c1)CCN(C1CCC1)CC2)N1CCOCC1 [Example 116, 1-[2-(3-Cyclobutyl-2,3,4,5-tetrahydro-1H-benzo[d]azepin-7-yloxy)-pyridin-3-yl]-1-morpholin-4-yl-methanone]	6.5-10.5 pKb
O=C(c1cccnc1Oc1ccc2c(c1)CCN(C1CCC1)CC2)N1CCCCC1 [Example 117, 1-[2-(3-Cyclobutyl-2,3,4,5-tetrahydro-1H-benzo[d]azepin-7-yloxy)-pyridin-3-yl]-1-piperidin-1-yl-methanone]	6.5-10.5 pKb
c1cnc(Oc2ccc3c(c2)CCN(C2CCC2)CC3)cn1 [Example 118, 3-Cyclobutyl-7-(pyrazin-2-yloxy)-2,3,4,5-tetrahydro-1H-benzo[d]azepine]	6.5-10.5 pKb
c1cnc(Oc2ccc3c(c2)CCN(C2CCC2)CC3)nc1 [Example 119, 3-Cyclobutyl-7-(pyrimidin-2-yloxy)-2,3,4,5-tetrahydro-1H-benzo[d]azepine]	6.5-10.5 pKb
Brc1cnc(Oc2ccc3c(c2)CCN(C2CCC2)CC3)nc1 [Example 120, 7-(5-Bromo-pyrimidin-2-yloxy)-3-Cyclobutyl-2,3,4,5-tetrahydro-1H-benzo[d]azepine]	6.5-10.5 pKb
COC(=O)c1cnc(Oc2ccc3c(c2)CCN(C2CCC2)CC3)cn1 [Example 122, 5-(3-Cyclobutyl-2,3,4,5-tetrahydro-1H-benzo[d]azepin-7-yloxy)-pyrazine-2-carboxylic acid methyl ester]	6.5-10.5 pKb
O=C(c1cnc(Oc2ccc3c(c2)CCN(C2CCC2)CC3)cn1)N1CCOCC1 [Example 123, 1-[5-(3-Cyclobutyl-2,3,4,5-tetrahydro-1H-benzo[d]azepin-7-yloxy)-pyrazin-2-yl]-1-morpholin-4-yl-methanone]	6.5-10.5 pKb
CCN(C)C(=O)c1cnc(Oc2ccc3c(c2)CCN(C2CCC2)CC3)cn1 [Example 124, 5-(3-Cyclobutyl-2,3,4,5-tetrahydro-1H-benzo[d]azepin-7-yloxy)-pyrazine-2-carboxylic acid ethylmethyl amide]	6.5-10.5 pKb
O=C(c1cnc(Oc2ccc3c(c2)CCN(C2CCC2)CC3)cn1)C1CCNCC1 [Example 126, 1-[5-(3-Cyclobutyl-2,3,4,5-tetrahydro-1H-benzo[d]azepin-7-yloxy)-pyrazin-2-yl]-1-piperidin-4-yl-methanone]	6.5-10.5 pKb
O=C(c1cnc(Oc2ccc3c(c2)CCN(C2CCC2)CC3)cn1)C1CCNC1 (centres unmarked) [Example 127, 1-[5-(3-Cyclobutyl-2,3,4,5-tetrahydro-1H-benzo[d]azepin-7-yloxy)-pyrazin-2-yl]-1-pyrrolidin-4-yl-methanone]	6.5-10.5 pKb
c1ccc(Oc2ccc3c(c2)CCN(C2CCC2)CC3)cc1 [Example 128, 3-Cyclobutyl-7-phenoxy-2,3,4,5-tetrahydro-1H-benzo[d]azepine]	6.5-10.5 pKb
O=C(c1ccc(Oc2ccc3c(c2)CCN(C2CCC2)CC3)cc1)N1CCOCC1 [Example 129, 1-[4-(3-Cyclobutyl-2,3,4,5-tetrahydro-1H-benzo[d]azepin-7-yloxy)-phenyl]-1-morpholin-4-yl-methanone]	6.5-10.5 pKb
